log2 fold change data for 35 targets are collected here from the supplement of paper PMC10849652.

Sequences of proteins named here, by UniProt entry; tags and fusion partners are left off. A change or cut given only in a name is not applied to a line headed by its entry.
UniProt Q5T011: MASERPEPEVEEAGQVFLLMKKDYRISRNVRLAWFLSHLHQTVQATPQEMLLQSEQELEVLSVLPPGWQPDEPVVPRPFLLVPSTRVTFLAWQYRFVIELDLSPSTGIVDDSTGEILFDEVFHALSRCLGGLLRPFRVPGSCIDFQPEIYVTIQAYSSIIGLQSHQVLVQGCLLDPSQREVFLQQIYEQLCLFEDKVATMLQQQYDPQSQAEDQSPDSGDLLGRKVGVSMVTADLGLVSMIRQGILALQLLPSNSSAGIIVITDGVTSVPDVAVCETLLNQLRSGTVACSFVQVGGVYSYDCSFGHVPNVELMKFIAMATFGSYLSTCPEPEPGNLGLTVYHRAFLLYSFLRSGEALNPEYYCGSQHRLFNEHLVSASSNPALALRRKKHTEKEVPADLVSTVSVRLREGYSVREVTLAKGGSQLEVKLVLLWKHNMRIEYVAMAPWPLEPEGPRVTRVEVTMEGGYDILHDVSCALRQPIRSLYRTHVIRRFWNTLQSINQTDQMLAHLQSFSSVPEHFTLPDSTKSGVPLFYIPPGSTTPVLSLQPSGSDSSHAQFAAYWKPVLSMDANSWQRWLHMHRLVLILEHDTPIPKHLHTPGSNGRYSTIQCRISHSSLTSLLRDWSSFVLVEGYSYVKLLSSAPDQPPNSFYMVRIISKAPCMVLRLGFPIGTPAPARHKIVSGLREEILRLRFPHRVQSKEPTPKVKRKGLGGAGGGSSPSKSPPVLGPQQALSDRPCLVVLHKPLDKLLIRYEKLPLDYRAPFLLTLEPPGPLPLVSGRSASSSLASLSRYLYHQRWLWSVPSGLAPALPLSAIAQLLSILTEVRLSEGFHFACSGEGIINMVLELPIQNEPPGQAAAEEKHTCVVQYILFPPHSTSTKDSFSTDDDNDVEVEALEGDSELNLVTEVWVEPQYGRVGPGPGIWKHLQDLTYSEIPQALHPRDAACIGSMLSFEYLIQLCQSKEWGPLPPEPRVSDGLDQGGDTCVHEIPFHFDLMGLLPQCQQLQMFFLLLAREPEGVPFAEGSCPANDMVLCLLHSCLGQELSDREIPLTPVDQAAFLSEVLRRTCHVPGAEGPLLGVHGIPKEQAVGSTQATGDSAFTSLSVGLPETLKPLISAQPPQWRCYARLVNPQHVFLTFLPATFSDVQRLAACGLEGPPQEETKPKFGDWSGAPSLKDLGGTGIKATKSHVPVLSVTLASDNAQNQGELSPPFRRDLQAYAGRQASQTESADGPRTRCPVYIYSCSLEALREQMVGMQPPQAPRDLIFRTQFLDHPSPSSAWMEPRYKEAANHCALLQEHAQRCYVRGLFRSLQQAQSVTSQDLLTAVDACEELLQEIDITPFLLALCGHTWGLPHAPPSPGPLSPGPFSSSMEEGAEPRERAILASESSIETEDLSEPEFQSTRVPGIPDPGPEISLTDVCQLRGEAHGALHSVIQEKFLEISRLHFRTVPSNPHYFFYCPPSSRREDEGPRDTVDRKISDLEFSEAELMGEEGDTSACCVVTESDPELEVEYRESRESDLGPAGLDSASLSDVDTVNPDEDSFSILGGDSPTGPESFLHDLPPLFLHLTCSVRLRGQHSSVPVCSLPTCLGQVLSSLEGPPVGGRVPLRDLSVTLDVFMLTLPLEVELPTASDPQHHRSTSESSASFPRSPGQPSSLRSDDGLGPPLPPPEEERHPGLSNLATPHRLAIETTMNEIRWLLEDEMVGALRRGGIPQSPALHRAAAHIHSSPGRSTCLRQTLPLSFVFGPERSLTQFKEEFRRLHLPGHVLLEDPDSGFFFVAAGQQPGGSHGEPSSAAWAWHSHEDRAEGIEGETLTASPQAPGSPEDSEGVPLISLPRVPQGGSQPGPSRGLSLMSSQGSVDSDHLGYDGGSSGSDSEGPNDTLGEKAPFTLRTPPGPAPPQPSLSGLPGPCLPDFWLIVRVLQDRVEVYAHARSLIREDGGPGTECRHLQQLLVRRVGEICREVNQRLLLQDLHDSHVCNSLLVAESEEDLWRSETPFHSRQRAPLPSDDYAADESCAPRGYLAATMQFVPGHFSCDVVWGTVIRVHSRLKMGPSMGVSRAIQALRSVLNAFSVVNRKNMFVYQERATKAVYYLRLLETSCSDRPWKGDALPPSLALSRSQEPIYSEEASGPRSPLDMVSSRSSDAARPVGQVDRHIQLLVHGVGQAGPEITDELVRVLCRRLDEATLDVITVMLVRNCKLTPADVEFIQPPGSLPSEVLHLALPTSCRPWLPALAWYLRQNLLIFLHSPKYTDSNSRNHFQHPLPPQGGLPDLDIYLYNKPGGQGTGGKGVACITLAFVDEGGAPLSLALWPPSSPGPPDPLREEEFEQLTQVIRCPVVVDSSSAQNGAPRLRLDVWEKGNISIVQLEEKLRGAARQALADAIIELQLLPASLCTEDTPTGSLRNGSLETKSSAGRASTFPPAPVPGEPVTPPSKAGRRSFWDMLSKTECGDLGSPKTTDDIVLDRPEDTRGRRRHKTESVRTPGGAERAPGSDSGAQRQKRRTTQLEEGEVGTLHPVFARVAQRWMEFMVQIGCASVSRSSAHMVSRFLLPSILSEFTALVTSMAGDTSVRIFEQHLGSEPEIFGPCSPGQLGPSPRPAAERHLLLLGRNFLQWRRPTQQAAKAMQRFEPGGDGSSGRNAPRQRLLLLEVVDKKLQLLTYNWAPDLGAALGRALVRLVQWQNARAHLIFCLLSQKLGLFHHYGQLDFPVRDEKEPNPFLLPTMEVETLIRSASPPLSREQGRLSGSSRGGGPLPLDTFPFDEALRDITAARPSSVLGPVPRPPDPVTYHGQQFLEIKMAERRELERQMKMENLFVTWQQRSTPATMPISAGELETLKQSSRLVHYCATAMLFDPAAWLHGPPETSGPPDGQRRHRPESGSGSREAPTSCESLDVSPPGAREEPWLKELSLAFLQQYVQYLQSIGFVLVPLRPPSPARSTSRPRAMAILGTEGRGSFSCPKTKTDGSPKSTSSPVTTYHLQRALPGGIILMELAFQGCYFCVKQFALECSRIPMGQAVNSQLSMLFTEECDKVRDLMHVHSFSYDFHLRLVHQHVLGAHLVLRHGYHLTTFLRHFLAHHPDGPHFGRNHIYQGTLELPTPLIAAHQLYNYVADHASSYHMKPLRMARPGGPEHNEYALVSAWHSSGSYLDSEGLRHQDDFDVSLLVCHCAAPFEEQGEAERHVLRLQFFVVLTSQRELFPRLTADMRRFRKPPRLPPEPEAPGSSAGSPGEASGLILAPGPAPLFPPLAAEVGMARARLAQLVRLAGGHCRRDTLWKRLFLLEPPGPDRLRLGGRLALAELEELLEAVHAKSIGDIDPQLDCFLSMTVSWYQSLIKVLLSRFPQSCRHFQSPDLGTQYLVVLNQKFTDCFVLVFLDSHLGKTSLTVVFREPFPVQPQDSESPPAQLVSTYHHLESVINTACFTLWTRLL
UniProt Q15544, whole entry, looked up: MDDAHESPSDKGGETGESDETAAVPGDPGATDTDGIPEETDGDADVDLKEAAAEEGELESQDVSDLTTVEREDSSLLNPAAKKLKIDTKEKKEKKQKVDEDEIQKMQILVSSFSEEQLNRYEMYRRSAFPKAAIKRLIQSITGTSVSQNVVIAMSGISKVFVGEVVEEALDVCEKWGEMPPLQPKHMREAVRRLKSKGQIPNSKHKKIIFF
UniProt Q13033: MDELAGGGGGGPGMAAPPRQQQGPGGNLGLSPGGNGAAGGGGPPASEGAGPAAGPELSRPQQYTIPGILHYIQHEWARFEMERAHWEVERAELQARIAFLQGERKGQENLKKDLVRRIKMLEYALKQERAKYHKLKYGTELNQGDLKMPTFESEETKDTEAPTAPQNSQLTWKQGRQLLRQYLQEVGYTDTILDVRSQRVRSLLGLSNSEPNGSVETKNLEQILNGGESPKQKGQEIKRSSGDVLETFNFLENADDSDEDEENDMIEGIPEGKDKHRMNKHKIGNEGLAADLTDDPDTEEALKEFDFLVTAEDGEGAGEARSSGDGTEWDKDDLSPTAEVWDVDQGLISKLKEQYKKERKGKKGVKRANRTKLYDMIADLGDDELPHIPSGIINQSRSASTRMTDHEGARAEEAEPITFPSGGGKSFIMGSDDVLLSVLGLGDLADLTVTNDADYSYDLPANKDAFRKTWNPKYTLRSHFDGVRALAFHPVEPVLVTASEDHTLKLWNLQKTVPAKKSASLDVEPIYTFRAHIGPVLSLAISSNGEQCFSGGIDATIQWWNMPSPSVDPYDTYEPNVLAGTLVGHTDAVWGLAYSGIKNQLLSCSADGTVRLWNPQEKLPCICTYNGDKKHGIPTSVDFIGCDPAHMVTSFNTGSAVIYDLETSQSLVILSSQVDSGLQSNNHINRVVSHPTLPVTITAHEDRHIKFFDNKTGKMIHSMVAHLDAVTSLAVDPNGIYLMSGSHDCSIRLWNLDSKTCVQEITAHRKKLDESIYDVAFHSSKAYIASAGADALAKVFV
UniProt P49842: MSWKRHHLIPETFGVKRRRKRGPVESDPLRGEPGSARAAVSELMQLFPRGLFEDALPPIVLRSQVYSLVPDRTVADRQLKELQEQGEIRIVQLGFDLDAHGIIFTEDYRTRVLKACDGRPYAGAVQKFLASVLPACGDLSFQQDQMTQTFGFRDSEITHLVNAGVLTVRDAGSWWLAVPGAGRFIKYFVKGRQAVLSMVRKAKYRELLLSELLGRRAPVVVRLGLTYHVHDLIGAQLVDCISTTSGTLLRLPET
UniProt O75486: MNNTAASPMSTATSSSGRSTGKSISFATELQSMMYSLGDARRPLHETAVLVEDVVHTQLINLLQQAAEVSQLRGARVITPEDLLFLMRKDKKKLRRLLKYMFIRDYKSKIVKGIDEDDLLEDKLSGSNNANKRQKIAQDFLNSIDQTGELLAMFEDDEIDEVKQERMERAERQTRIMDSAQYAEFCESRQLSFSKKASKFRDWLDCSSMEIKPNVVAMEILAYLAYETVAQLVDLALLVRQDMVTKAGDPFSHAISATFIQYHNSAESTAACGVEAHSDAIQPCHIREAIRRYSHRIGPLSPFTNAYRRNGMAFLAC
UniProt Q8N300: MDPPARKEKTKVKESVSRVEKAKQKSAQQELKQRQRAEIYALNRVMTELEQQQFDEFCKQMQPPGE
UniProt P08842: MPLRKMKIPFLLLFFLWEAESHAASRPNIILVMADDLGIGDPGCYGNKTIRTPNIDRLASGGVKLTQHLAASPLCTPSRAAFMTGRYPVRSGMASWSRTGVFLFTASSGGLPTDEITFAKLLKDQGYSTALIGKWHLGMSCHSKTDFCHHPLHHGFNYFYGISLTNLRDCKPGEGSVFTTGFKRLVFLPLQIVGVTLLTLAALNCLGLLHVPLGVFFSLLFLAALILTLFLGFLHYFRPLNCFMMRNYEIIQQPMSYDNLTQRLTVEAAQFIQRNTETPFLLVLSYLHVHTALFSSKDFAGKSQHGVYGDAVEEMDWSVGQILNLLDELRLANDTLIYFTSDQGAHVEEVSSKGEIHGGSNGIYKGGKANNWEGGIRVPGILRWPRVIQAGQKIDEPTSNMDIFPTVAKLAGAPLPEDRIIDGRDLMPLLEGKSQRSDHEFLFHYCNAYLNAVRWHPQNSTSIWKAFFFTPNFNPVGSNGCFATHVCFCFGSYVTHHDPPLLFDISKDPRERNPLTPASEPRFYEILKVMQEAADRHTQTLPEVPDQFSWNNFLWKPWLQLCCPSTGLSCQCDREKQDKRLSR
UniProt Q5VWG9, whole entry, looked up: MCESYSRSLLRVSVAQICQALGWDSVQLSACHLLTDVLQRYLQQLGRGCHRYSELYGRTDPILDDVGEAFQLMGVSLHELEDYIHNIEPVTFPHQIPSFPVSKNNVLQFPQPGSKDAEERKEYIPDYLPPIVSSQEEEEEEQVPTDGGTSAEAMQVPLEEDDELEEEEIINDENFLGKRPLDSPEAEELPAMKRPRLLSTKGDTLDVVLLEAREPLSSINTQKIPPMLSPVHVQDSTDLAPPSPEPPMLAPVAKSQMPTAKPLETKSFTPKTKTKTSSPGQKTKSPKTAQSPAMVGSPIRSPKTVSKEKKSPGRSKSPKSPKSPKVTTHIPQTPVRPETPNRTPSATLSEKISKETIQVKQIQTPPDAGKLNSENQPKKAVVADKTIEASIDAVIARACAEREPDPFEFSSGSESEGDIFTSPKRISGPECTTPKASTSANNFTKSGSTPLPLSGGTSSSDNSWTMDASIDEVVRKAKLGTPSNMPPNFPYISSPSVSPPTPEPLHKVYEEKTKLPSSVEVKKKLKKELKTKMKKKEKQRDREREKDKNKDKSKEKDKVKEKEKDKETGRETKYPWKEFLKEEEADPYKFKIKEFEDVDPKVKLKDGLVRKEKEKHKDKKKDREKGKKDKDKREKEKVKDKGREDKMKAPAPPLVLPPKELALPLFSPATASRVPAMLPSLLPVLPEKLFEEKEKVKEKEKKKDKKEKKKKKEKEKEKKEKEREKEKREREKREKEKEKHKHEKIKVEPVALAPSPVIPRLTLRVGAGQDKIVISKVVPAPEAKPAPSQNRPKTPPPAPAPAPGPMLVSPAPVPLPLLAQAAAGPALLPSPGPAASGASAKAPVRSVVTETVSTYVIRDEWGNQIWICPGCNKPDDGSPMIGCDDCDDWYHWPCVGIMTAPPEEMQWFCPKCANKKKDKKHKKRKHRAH

The other results are listed elsewhere or left out.

Compound in the first assay: C[C@H](Nc1ncnc2nc[nH]c12)c1cc2cccc(Cl)c2c(=O)n1-c1ccccc1 [duvelisib]
The experiment in a line: log2 fold change, soluble protein after heating vs DMSO (PISA); higher = thermal stabilisation; K562 lysate, 10 uM; active = over 0.2 and 3.5 SD of the protein, either way, in both replicates (recomputed). In a few lines:
(§1)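 Values give the log-two fold change in thermal stability against solvent controls, from duplicates. Crude K562 extract at 1 mg/mL protein, made by dounce homogenisation in PBS pH 7.4 with 1 mM MgCl2, was treated with 10 μM compound for 30 min. After 3 min heating across 48°C-58°C, aliquots were pooled, adjusted to 0.5% NP-40 at 4°C and centrifuged at 21,000xg for 90 min. The supernatant was measured by TMTpro 16plex LC-MS/MS with channel sums equalised.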
STIM2 isoform 2 (UniProt Q9P246): the log2 fold change was inactive: -0.114.

Regarding TADA2B (UniProt Q86TJ2), the log2 fold change is inactive: 0.186.

STK26 isoform 3 (UniProt Q9P289): the log2 fold change is inactive: 0.008.

For STK16 (UniProt O75716), the log2 fold change was inactive: 0.057.

On to SUSD1 isoform 2 (UniProt Q6UWL2), for which the log2 fold change was inactive: 0.15.

For the target STK17B (UniProt O94768), the log2 fold change is inactive: 0.

On to STK35 (UniProt Q8TDR2), for which the log2 fold change was inactive: -0.051.

Turning to TAF1 isoform 4 (UniProt P21675), the log2 fold change was inactive: 0.002.

As to SZT2 (UniProt Q5T011), the log2 fold change is inactive: -0.081.

As to TAF11 (UniProt Q15544), the log2 fold change was inactive: -0.06.

As to STK38L (UniProt Q9Y2H1), the log2 fold change is inactive: -0.007.

For STRN3 isoform 2 (UniProt Q13033), the log2 fold change is inactive: 0.047.

For the target STK19 (UniProt P49842), the log2 fold change was inactive: -0.128.

Turning to SULT1A3 isoform 3 (UniProt P0DMM9), the log2 fold change was inactive: 0.072.

For TAF5L (UniProt O75529), the log2 fold change was inactive: 0.041.

Turning to SWSAP1 (UniProt Q6NVH7), the log2 fold change was inactive: 0.098.

For TAF1C (UniProt Q15572), the log2 fold change is inactive: 0.044.

Take SYK (UniProt P43405): the log2 fold change is inactive: 0.004.

With SYTL2 isoform 8 (UniProt Q9HCH5), the log2 fold change is inactive: 0.037.

For SUGCT isoform 3 (UniProt Q9HAC7), the log2 fold change is inactive: 0.026.

With TAF5 (UniProt Q15542), the log2 fold change was inactive: -0.035.

For the target STK10 (UniProt O94804), the log2 fold change was inactive: 0.028.

With STRN3 (UniProt H0YJT2), the log2 fold change was inactive: 0.16.

Compound in the next assay: Cc1cc(Nc2cc(CN3CCOCC3)c3nc(C)c(Cc4ccc(Cl)cc4F)n3n2)n[nH]1 [gandotinib]
The assay is described as above. In a few lines:
as §1
Regarding STIM2 isoform 2 (UniProt Q9P246), the log2 fold change is inactive: -0.093.

Turning to SUSD3 (UniProt Q96L08), the log2 fold change was inactive: 0.007.

On to SUPT3H (UniProt O75486), for which the log2 fold change is inactive: -0.139.

On to STXBP6 (UniProt Q8NFX7), for which the log2 fold change is inactive: 0.126.

As to SYNM (UniProt O15061), the log2 fold change was inactive: 0.035.

In the case of SUSD1 isoform 2 (UniProt Q6UWL2), the log2 fold change was inactive: -0.023.

With SUSD6 (UniProt Q92537), the log2 fold change was inactive: -0.032.

For the target STK35 (UniProt Q8TDR2), the log2 fold change was inactive: 0.316.

Regarding TAF1 isoform 4 (UniProt P21675), the log2 fold change is inactive: -0.195.

On to SVBP (UniProt Q8N300), for which the log2 fold change was inactive: 0.024.

As for SUFU (UniProt Q9UMX1), the log2 fold change was inactive: 0.075.

As for SZT2 (UniProt Q5T011), the log2 fold change is inactive: -0.17.

As to TAF11 (UniProt Q15544), the log2 fold change was inactive: 0.026.

Regarding STRN3 isoform 2 (UniProt Q13033), the log2 fold change is inactive: 0.031.

On to SULT1A3 isoform 3 (UniProt P0DMM9), for which the log2 fold change is inactive: -0.088.

On to TAF5L (UniProt O75529), for which the log2 fold change is inactive: -0.029.

On to TAF13 (UniProt Q15543), for which the log2 fold change was inactive: 0.03.

In the case of TAF1C (UniProt Q15572), the log2 fold change is inactive: -0.056.

For the target SYK (UniProt P43405), the log2 fold change is inactive: 0.272.

On to STS (UniProt P08842), for which the log2 fold change was inactive: -0.022.

For TAF3 (UniProt Q5VWG9), the log2 fold change was inactive: 0.046.

With SYNGR1 isoform 2 (UniProt O43759), the log2 fold change was inactive: -0.037.

For STK17A (UniProt Q9UEE5), the log2 fold change is inactive: -0.001.

Consider TAF5 (UniProt Q15542), for which the log2 fold change is inactive: -0.194.

Turning to STRN3 (UniProt H0YJT2), the log2 fold change was inactive: 0.111.
